Paper PMC8632965
Results are given in words; binding and its absence hold for the method and conditions named. Some entries that bind do so weakly or less than the wild type.

Protein sequences, listed by entry. Tags and fused reporters are not part of them. Lines headed by an entry give the natural chain unless they say otherwise; changes in a name come on top. Chains listed by the source or under a name are the forms on record and can include a tag or linker.
UniProt Q03135: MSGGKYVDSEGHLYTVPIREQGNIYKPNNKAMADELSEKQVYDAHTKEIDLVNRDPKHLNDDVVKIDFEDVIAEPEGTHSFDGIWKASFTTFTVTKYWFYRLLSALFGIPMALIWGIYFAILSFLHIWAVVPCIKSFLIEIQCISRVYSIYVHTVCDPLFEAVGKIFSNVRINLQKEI
extracellular portion of CD147 (ECD), amino acids 22–205 (P35613-2, form named): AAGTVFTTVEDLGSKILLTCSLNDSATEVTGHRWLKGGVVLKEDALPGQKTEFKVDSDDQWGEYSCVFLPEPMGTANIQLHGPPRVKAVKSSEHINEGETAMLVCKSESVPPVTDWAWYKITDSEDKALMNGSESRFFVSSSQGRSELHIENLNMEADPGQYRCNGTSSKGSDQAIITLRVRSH

Target: caveolin-1 protein (UniProt Q03135)
Assay: SPR; interruption experiment: CD147-5A12Fab complex (isolated by size exclusion chromatography) injected over CM5 chips with BSA, CD98 and caveolin-1 immobilised separately; Biacore T200; both purified

“extracellular portion of CD147 (ECD), amino acids 22–205 (from UniProt P35613-2 22-205) (domain or fragment)” was tested, and the binding was “binds”.
